# Assay results published in paper PMC7819943, “Rice protein-binding microarrays: a tool to detect cis-acting elements near promoter regions in rice”.
# Sequences of proteins named here, by UniProt entry; tags and fusion partners are left off.
# UniProt Q0JBA9, entry or part of it: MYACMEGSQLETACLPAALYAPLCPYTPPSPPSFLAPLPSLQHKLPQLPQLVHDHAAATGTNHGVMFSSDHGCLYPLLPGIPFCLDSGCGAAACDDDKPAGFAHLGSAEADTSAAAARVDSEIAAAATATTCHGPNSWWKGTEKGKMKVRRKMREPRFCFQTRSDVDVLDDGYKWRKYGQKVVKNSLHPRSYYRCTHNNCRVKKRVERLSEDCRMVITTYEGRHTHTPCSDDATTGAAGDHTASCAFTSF
# Some of the results follow.
# Target: OsWRKY34 (Oryza sativa, UniProt Q0JBA9 1-250)
# Test: protein-binding microarray (RPBM); PBS, 2% BSA, 51.3 ng/ul salmon testes DNA, 50 uM zinc acetate, 200 nM TF, 25 C, 1 h; high values mean tight binding
# Conditions: protein: recombinant; tags: N-terminal polyhistidine and DsRed monomer fusion (pET32a); label: CyDye5-dUTP incorporated in the synthesized complementary strand; 3' TTTTT single-stranded linker to array surface; dsDNA, one strand shown
# Method in brief: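 Transcription factors were made in E. coli BL21-CodonPlus as N-terminal fusions to a polyhistidine tag and DsRed, then purified on Ni–NTA. After primer extension with Cy5-dUTP and blocking with 2% BSA, a custom Agilent array was exposed for 1 h at 25 °C to 200 nM protein in PBS, 2% BSA, salmon testes DNA and 50 µM zinc acetate. Washed arrays were scanned on an Axon 4000B, and the binding signal is per-feature fluorescence intensity in arbitrary units.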
row,Sequence,binding signal
1,ACTAGTACTAGTTGCATGTTAGCTCTGTTTCTAGCATGTTCGGAGTCACCTAGTGCAG,8410 fluorescence intensity (a.u.)
2,GAGACACCACCCGCCGCCGCCGCCTCCTCCATTACCGAGACGGAGTCACCTAGTGCAG,8790 fluorescence intensity (a.u.)
3,AGGTGGTGTTATTACCCATAGCACTTAATGTGGGCCAATGCGGAGTCACCTAGTGCAG,8320 fluorescence intensity (a.u.)
4,CTAGTGGCGTGGTTGCTCCCCAACGAGATCGTGCATTCTCCGGAGTCACCTAGTGCAG,8270 fluorescence intensity (a.u.)
5,ACCTTGTCTCCTTACCCAGCGTTTCCAACCATGCCTAACTCGGAGTCACCTAGTGCAG,10400 fluorescence intensity (a.u.)
6,CCGGTAGTTTTTCCCCGTCGGCTCGGCTATTTAAATCAAGCGGAGTCACCTAGTGCAG,8310 fluorescence intensity (a.u.)
7,CCGTCCACCACCGCCTTTCTTCGATCCGTCGCCACGCCCTCGGAGTCACCTAGTGCAG,8150 fluorescence intensity (a.u.)
8,TCCTTTATTTATCCCTGCTTCCTGGGCCATTATGGGCTGACGGAGTCACCTAGTGCAG,9040 fluorescence intensity (a.u.)
9,GACCGGCAACTCTTCCTTTTTCGAGCCGTGAAATCACCACCGGAGTCACCTAGTGCAG,10200 fluorescence intensity (a.u.)
10,TAATACTACTCCCTCCGTTGCAGGTTATAAAACGTTTTGTCGGAGTCACCTAGTGCAG,9290 fluorescence intensity (a.u.)
11,TTGATCGAGTGCCATTTTATATACACCGTTGTGCATTTCCCGGAGTCACCTAGTGCAG,8820 fluorescence intensity (a.u.)
12,ACTTTATTACACACATAAACTTTCAACTTTACCGTCACATCGGAGTCACCTAGTGCAG,9420 fluorescence intensity (a.u.)
13,CGTCCCTGACGTTGCACCTTGTCATCGGCGCTCTGCCATACGGAGTCACCTAGTGCAG,8470 fluorescence intensity (a.u.)
14,AACATGTTTTACGCTGGTTTTATGCCTTGACGCGCACGAGCGGAGTCACCTAGTGCAG,8310 fluorescence intensity (a.u.)
15,CCTCCACGCCGACGTCGCGCTGCGCCTGCCACCTTTATCTCGGAGTCACCTAGTGCAG,10300 fluorescence intensity (a.u.)
16,TTATGTGTTAGGTATCCCCATGTTCTCCTAGTGATGTTTACGGAGTCACCTAGTGCAG,9610 fluorescence intensity (a.u.)
17,TGTCACGGGAATGTCACCGGAGCAATGTCACCGAATCCCACGGAGTCACCTAGTGCAG,8830 fluorescence intensity (a.u.)
18,TCTCATGCTCCTCTTTATTATTTCTTTATTATTAACTAGCCGGAGTCACCTAGTGCAG,8580 fluorescence intensity (a.u.)
19,CTCCAGGGATGCCTTCGCCATCGCCCGCGCGCTCTCCATGCGGAGTCACCTAGTGCAG,9160 fluorescence intensity (a.u.)
20,GTCTTTCTTATCTATAGTTGCTTTTCTTCATTGTCTTTTGCGGAGTCACCTAGTGCAG,8290 fluorescence intensity (a.u.)
21,CCCTGTGCGCTCATCTGTCGGTGGGTCTGCCATTCAGCTCCGGAGTCACCTAGTGCAG,10100 fluorescence intensity (a.u.)
22,TCTCACATTGTTATAGCTCACTTCTCTCTCCCTTTTATAACGGAGTCACCTAGTGCAG,14700 fluorescence intensity (a.u.)
23,TGCATTTCTTTCTTATTGTCTTGTTGTGGAATGATTCATACGGAGTCACCTAGTGCAG,8170 fluorescence intensity (a.u.)

# Copied from the list.
# Value for TGTCACGGGAATGTCACCGGAGCAATGTCACCGAATCCCACGGAGTCACCTAGTGCAG under binding signal: 8830 fluorescence intensity (a.u.)
# Value for TCTCATGCTCCTCTTTATTATTTCTTTATTATTAACTAGCCGGAGTCACCTAGTGCAG under binding signal: 8580 fluorescence intensity (a.u.)
